PMC5717197, “Mechanistic insight into TRIP13-catalyzed Mad2 structural transition and spindle checkpoint silencing” (Nature Communications, 2017)
No constants are given. Whether binding was seen depends on the method and setting.

Biological target: TRIP13 G320A (human) (UniProt Q15645)
Experiment: condition: only in the absence of ATP (nucleotide-free); AUC; sedimentation velocity, 4 °C, in the absence of ATP, several concentrations; 10 mM HEPES pH 7.4, 300 mM NaCl, 5 mM MgCl2, 1.357 M glycerol, 1 mM TCEP; both purified

- binding: no binding
B1: TRIP13 G320A (enzyme, human, UniProt Q15645 1-432, looked up)
chain: MDEAVGDLKQALPCVAESPTVHVEVHQRGSSTAKKEDINLSVRKLLNRHNIVFGDYTWTEFDEPFLTRNVQSVSIIDTELKVKDSQPIDLSACTVALHIFQLNEDGPSSENLEEETENIIAANHWVLPAAEFHGLWDSLVYDVEVKSHLLDYVMTTLLFSDKNVNSNLITWNRVVLLHGPPGTGKTSLCKALAQKLTIRLSSRYRYGQLIEINSHSLFSKWFSESGKLVTKMFQKIQDLIDDKDALVFVLIDEVESLTAARNACRAGTEPSDAIRVVNAVLTQIDQIKRHSNVVILTTSNITEKIDVAFVDRADIKQYIAPPSAAAIFKIYLSCLEELMKCQIIYPRQQLLTLRELEMIGFIENNVSKLSLLLNDISRKSEGLSGRVLRKLPFLAHALYVQAPTVTIEGFLQALSLAVDKQFEERKKLAAYI
notes: TRIP13, human; source: E. coli BL21 (DE3), purified (Ni-NTA, TEV, Resource Q, Superdex 200); not shown: His6, N-terminal, cleaved
